# Results reported in PubChem BioAssay AID1439 (NMMLSC, 2008).
# The chains behind the UniProt entries cited, without tags or fusion partners.
# UniProt P09471, whole entry, looked up: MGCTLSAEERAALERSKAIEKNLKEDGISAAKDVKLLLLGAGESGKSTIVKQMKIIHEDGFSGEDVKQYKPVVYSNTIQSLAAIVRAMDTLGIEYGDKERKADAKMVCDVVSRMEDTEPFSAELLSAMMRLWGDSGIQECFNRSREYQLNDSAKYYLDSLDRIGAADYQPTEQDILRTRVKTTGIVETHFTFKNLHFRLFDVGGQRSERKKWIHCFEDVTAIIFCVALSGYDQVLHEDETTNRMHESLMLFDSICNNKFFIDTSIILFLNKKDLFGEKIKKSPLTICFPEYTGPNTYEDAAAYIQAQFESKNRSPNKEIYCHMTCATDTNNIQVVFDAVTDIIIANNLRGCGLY
# Out of some 220,000 compounds screened, about 770 (0.35%) were called active. Inconclusive means that the source gave no clear call. Such entries were picked first, then a sample of the others. Cut-off read from the data, not from the text of the source: active = binding response below about 49% or above about 150%; inconclusive = no clear call, values can overlap the other calls; inactive = in between.
# Target: Guanine nucleotide-binding protein G(o) subunit alpha (Homo sapiens) (UniProt P09471)
# Assay: RGS7-Galphao binding modulators, primary screen, biochemical, multiplexed bead flow cytometry (AID 1439);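 note: fluorescent Galphao held in activated GDP-AlF4 state binding bead-coupled RGS7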
# Settings: at 10 µM, actives lie on both sides
row,SMILES,binding response (% of control)
1,C/C(=N\NC(=O)c1cc(-c2ccncc2)nc2ccccc12)c1ccc(N2CCOCC2)cc1,inconclusive: 73.8%
2,CC1(CCc2ccccc2)NC(=O)N(CC(=O)Nc2ccc(S(N)(=O)=O)cc2)C1=O (stereo unspecified),inconclusive: 111%
3,Cc1cc(/C=N/Nc2ncnc(N)c2[N+](=O)[O-])c(C)n1-c1ccccc1,inconclusive: 85.8%
4,O=C(NNC(=O)c1csc(-c2cccnc2)n1)Nc1ccc(Cl)cc1,inconclusive: 125%
5,CC(C(Sc1ccccc1N)c1ccccc1)[N+](=O)[O-] (stereo unspecified),inconclusive: 93.8%
6,COc1ccc(CCNC(=O)c2cc3c(=O)n(C)c4ccccc4c3n2C)cc1OC,inconclusive: 118%
7,O=C(CNS(=O)(=O)c1ccc(Br)cc1)N1CCOCC1,inactive: 99%
8,O=C(NNC(=O)c1csc(-c2cnccc2C(F)(F)F)n1)c1ccc(C(F)(F)F)cc1,inconclusive: 72.5%
9,Cc1noc(C)c1C(=O)N1CCN(CCc2ccccc2)CC1,inactive: 102%
10,CC(=O)c1ccc(NC(=O)C(C)N(C)CC(=O)Nc2cccc(F)c2)cc1 (stereo unspecified),inconclusive: 110%
11,CN1C2C=C(N(CCc3ccccc3)C(=O)c3ccc(Cl)cc3)CC1CC2 (stereo unspecified),inactive: 100%
12,Cc1cc(C(N)=O)nn1-c1c(Cl)cc(Cl)cc1Cl,inconclusive: 145%
13,Cc1n[nH]c(C)c1CCC(=O)N/N=C/c1cccs1,inconclusive: 121%
14,Cc1ccc2nc(NCc3ccc(F)cc3)c3nncn3c2c1,inconclusive: 83%
15,CCN(CC)CC(=O)Nc1scc2c1c(=O)oc1ccccc12,inconclusive: 55.2%
16,Cc1ccc(-n2c([S-])c(C(=O)Nc3ccc(OC(F)F)cc3)[n+]3ccc(C(=O)NCCO)cc23)cc1C,inconclusive: 78.1%
17,O=C(CCCn1c(SCc2cc(=O)n3cc(Cl)ccc3n2)nc2ccccc2c1=O)NCC1CCCO1 (stereo unspecified),inconclusive: 59%
18,Cc1ccc(/C(O)=C/c2nc3cc(C)ccc3oc2=O)cc1,inconclusive: 112%
19,CC(C)CC(NS(=O)(=O)c1cc(C(=O)O)ccc1Cl)C(=O)O (stereo unspecified),inconclusive: 111%
20,COC(=O)c1cc(C(=O)N2CCN(c3cccc(Cl)c3)CC2)cc([N+](=O)[O-])c1,inconclusive: 101%
21,CCC(C)(C)NC(=O)C1c2ccccc2Oc2ccccc21,inconclusive: 105%
22,Cn1nnc2ccccc2c1=O,inconclusive: 103%
23,CSc1c[n+]2c(n1C)CCC2,inactive: 113%

row,SMILES,binding response (% of control)
1,Cn1c(SCc2ccccc2F)nnc1-c1ccccn1,inactive: 101%
2,O=C(OCC(=O)c1ccccc1Cl)c1cnccn1,inactive: 97.1%
3,CC(NC(=O)COC(=O)C1=COCCO1)C12CC3CC(CC(C3)C1)C2 (stereo unspecified),inconclusive: 96.9%
4,N#CC(c1nc2ccccc2nc1N1CCOCC1)S(=O)(=O)c1ccccc1 (stereo unspecified),inconclusive: 169%
5,COc1ccc(/C=N/NC(=O)c2cc(=O)[nH]c3ccccc23)cc1OC,inactive: 96.9%
6,CC(=O)NC(CC(=O)Nc1cccc(S(=O)(=O)N2CCCCC2)c1)c1ccccc1 (stereo unspecified),inactive: 100%
7,CCOC(=O)CSc1nc2cc(C(F)(F)F)cnc2n1C,inconclusive: -46.7%
8,CCO[C@@H]1OC(C(=O)N2CCN(Cc3ccccc3)CC2)=C[C@H](c2csc3ccccc23)[C@H]1CCCO,inactive: 94%
9,COC(=O)[C@@H]1C[C@@]2(O)[C@H](O)[C@H](O)[C@H](O)C[C@H]2N1Cc1ccc(-c2ccccc2)cc1,inconclusive: 117%
10,COc1ccc(C(=O)NC(=S)Nc2ccc(N3CCN(C(C)=O)CC3)cc2)cc1[N+](=O)[O-],inconclusive: 106%
11,Cc1ccc(Nc2c(-c3ccccn3)nc3cccc(C)n23)cc1,inactive: 98.2%
12,CC(C)(C)C(=O)Cn1nnc(-c2ccc(C(F)(F)F)cc2)n1,inconclusive: 70.6%
13,O=C(CSc1nnc2ccccn12)Nc1ccc2c(c1)OCCO2,inactive: 97.4%
14,Cc1c([N+](=O)[O-])c(N)nn1C,inconclusive: 116%
15,COC(=O)c1sccc1NC(=O)CC1C(=O)NCCN1C(=O)Nc1ccc(F)cc1F (stereo unspecified),inconclusive: 73.7%
16,CCOC(=O)c1c(NC(=S)NC)sc2c1CCCC2,inconclusive: 87.1%
17,CCC1=C2CC[C@H]3C(=O)N(C)C(=O)[C@H]3[C@H]2[C@@]2(Cc3ccccc3)C(=NCCOC)OC(=O)N2C1=O,inconclusive: 115%
18,CC1=NN(C(=O)c2ccco2)C(O)(c2ccccc2)C1 (stereo unspecified),inconclusive: 127%
19,Cc1csc(SCC(=O)NC(C)c2ccc(F)cc2)n1 (stereo unspecified),inconclusive: 92.1%
20,COCC(C)NC(=O)c1cc2cc(OC)ccc2[nH]1 (stereo unspecified),inconclusive: 114%
21,Cc1ccccc1OCC(=O)Nc1nnc(-c2ccncc2)s1,inconclusive: 96%
22,Cc1ccc2nc(-c3cccnc3)c(Nc3ccccc3C)n2c1,inactive: 98.5%
23,COc1ccccc1C1CCCN1Cc1nc(-c2ccc(C)s2)oc1C (stereo unspecified),inactive: 108%

# A portion from further up, for reference:
row,SMILES,binding response (% of control)
12,CC(C)(C)C(=O)Cn1nnc(-c2ccc(C(F)(F)F)cc2)n1,inconclusive: 70.6%
13,O=C(CSc1nnc2ccccn12)Nc1ccc2c(c1)OCCO2,inactive: 97.4%

# The list continues:

row,SMILES,binding response (% of control)
1,Cc1cccc(N2CCN(Cc3c(C)n(C)n(-c4ccccc4)c3=O)CC2)c1C,inactive: 103%
2,CCC(C)(C)C(=O)Nc1cccc(Cl)c1C,inactive: 99.5%
3,C/C(=C\C(=O)c1ccc(Cl)s1)N(C)C,inconclusive: 115%
4,CCOc1ccc(/C=C2\SC(=S)N(NS(=O)(=O)c3ccccc3)C2=O)cc1OC,inconclusive: 98.9%
5,CCC1=C(OC(=O)N(CC)CC)N2C(=O)OC(=NCC3CC3)[C@]2(Cc2ccccc2)[C@H]2C1=CC[C@H]1C(=O)N(c3ccccc3)C(=O)[C@H]12,inconclusive: 95%
6,Cc1nn(C)cc1/C=N/NC(=O)Cn1cncn1,inconclusive: 83.7%
7,Clc1cccc(C2=NOC(c3nnc(-c4ccccc4)o3)C2)c1 (stereo unspecified),inconclusive: 111%
8,COc1ccc(C2CC(=O)Oc3c(C(CCN4CCCC(C)C4)c4ccc(N(C)C)cc4)c(OC)cc(OC)c32)cc1 (stereo unspecified),inconclusive: 104%
9,Cc1cc(N2CCN(C(=O)c3ccco3)CC2)c2ccccc2n1,inconclusive: 120%
10,COC(=O)[C@H](CC(C)C)NC(=O)N1CCCCC1,inconclusive: 87.5%
11,Cc1onc(-c2ccccc2)c1-c1ccnn1C(=O)NC(C)C,inconclusive: 85.2%
12,NC(=O)C(=O)N/N=C/c1cccc(C(F)(F)F)c1,inconclusive: 129%
13,CCCOC(=O)c1ccc(NC(=O)c2ccccc2OC)cc1,inactive: 103%
14,O=C(Nc1ccc2c(c1)OCO2)N1CCN(c2ncc(C(F)(F)F)cc2Cl)CC1,inactive: 105%
15,COc1ccc(/C=C/c2cc[n+](C(=O)Cc3ccccc3)cc2)cc1,inconclusive: 98%
16,COc1ccc2oc(=Nc3ccc(C(=O)O)cc3)c(C(=O)NCc3ccco3)cc2c1,inconclusive: 107%
17,Nc1nc(N)c2cc(Sc3ccc4ccccc4c3)ccc2n1,inconclusive: 147%
18,c1cncc(CSc2nnc3ccc(-c4ccco4)nn23)c1,inconclusive: 69.4%
19,Cc1ccc(Cc2cc(C)n[nH]c2=O)cc1,inconclusive: 94.4%
20,O=C(CBr)N1CCc2ccccc2C(c2ccccc2)C1 (stereo unspecified),inconclusive: 87.7%
21,Cn1cc2ccc([N+](=O)[O-])cc2n1,inconclusive: 87.9%
22,CCOc1ccc(-n2c(-c3ccco3)nc3c(cnn3-c3ccc(C)cc3)c2=O)cc1,inconclusive: 103%
23,Clc1ccc(-c2c(C3=NCCCN3)nnn2-c2ccc(Cl)cc2)cc1,inconclusive: 23.1%

# A different layout for three compounds above.
row | SMILES | binding response (% of control)
16 | COc1ccc2oc(=Nc3ccc(C(=O)O)cc3)c(C(=O)NCc3ccco3)cc2c1 | inconclusive: 107%
17 | Nc1nc(N)c2cc(Sc3ccc4ccccc4c3)ccc2n1 | inconclusive: 147%
18 | c1cncc(CSc2nnc3ccc(-c4ccco4)nn23)c1 | inconclusive: 69.4%

# (next part)

row,SMILES,binding response (% of control)
1,O=c1c2cc(F)ccc2[nH]c(=S)n1CCCN1CCOCC1,inactive: 99.8%
2,COc1ccc(/C=C(\C#N)C(=O)Nc2cccc3ncccc23)cc1OC,inconclusive: 37.7%
3,O=C(Nc1ccc(CN2CCS(=O)(=O)CC2)cc1)c1ccccc1,inconclusive: 77.3%
4,COc1cccc(-n2c(O)c(C=NCc3ccccn3)c3ccccc3c2=O)c1,inconclusive: 103%
5,Cc1cc(NC(=O)c2cc3cccc([N+](=O)[O-])c3[nH]2)ccc1F,inconclusive: 165%
6,CCN(CC)CC(O)COC(c1ccccc1)c1ccccc1 (stereo unspecified),inconclusive: 117%
7,Cc1cccc2cc(COC(=O)c3ccccn3)c(=O)[nH]c12,inactive: 71.5%
8,COc1ccc(NC(=O)c2ccc(S(=O)(=O)C(F)F)cc2)c(OC)c1,inconclusive: 90.1%
9,COc1ccc(N2C(=O)CC(Sc3n[nH]c(-c4cccc(C)c4)n3)C2=O)cc1 (stereo unspecified),inconclusive: 68.9%
10,COC(=O)c1sc(-c2ccc(Cl)cc2)cc1NC(=O)c1ccccc1C(=O)O,inconclusive: 109%
11,Cc1ccc(Cn2ccc(NC(=O)c3cc(C(C)C)on3)n2)cc1,active: 43.9%
12,Cc1cccc(NCc2ccccc2)c1,inconclusive: 95.7%
13,COc1cccc(/C=N/NC(=S)NC2CC3CC2C2C=CCC32)c1O (stereo unspecified),inconclusive: 108%
14,COc1cc(NC(=O)CCc2c(C)nc3nc(C)nn3c2C)cc(OC)c1,inactive: 102%
15,CC(C)c1nc2c(c(=O)n(C)c(=O)n2C)n1C,inconclusive: 84.7%
16,CSc1nc(C)nc(C2CC2)c1C#N,inconclusive: 125%
17,O=C(Nc1nnc(COc2ccc(Br)cc2)s1)c1ccco1,inconclusive: 88.3%
18,CCOC(=S)N/C(=N\S(=O)(=O)c1ccc(C)cc1)c1ccccc1,inactive: 98.3%
19,CC(C(=O)Nc1ncccn1)(c1ccccc1)c1ccccc1,inconclusive: 97.3%
20,Cc1cc(C)nc(N2N=C(C(F)(F)F)CC2=O)n1,inconclusive: -15.8%
21,Cc1ccc(C(=O)Nc2ccc(S(=O)(=O)N3CCc4ccccc4C3)cc2)o1,inactive: 100%
22,CN(C)S(=O)(=O)Oc1ccc(C(=O)Nc2ccc([N+](=O)[O-])cc2)cc1,inconclusive: 125%
